# In PMC7819943, “Rice protein-binding microarrays: a tool to detect cis-acting elements near promoter regions in rice”:
# The list shows a part of the results.
# Biological target: T1, OsSMF1 (Oryza sativa, UniProt Q6ZLB0 1-436)
# T1 sequence: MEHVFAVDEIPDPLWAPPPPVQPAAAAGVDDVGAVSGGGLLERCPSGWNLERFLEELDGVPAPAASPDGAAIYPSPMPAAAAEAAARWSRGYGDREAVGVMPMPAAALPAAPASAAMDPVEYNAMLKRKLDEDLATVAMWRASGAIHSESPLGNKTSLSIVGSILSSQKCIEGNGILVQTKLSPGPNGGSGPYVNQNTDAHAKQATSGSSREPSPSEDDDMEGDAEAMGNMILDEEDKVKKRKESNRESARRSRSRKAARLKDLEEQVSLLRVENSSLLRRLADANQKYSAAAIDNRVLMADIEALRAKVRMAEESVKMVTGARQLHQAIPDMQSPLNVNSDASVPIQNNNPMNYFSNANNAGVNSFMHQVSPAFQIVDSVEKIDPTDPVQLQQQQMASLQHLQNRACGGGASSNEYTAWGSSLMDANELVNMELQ
# Assay: protein-binding microarray (RPBM); PBS, 2% BSA, 51.3 ng/ul salmon testes DNA, 50 uM zinc acetate, 200 nM TF, 25 C, 1 h; high values mean tight binding
# Settings: protein: recombinant; tags: N-terminal polyhistidine and DsRed monomer fusion (pET32a); chain copies: 2; label: CyDye5-dUTP incorporated in the synthesized complementary strand; 3' TTTTT single-stranded linker to array surface; dsDNA, one strand shown
# How it was run: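 Transcription factors were made in E. coli BL21-CodonPlus as N-terminal fusions to a polyhistidine tag and DsRed, then purified on Ni–NTA. After primer extension with Cy5-dUTP and blocking with 2% BSA, a custom Agilent array was exposed for 1 h at 25 °C to 200 nM protein in PBS, 2% BSA, salmon testes DNA and 50 µM zinc acetate. Washed arrays were scanned on an Axon 4000B, and the binding signal is per-feature fluorescence intensity in arbitrary units.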
row,Sequence,binding signal
1,TTTATTTGATGATTGGTATTCTATGGTTACTTTCCCAGGGCGGAGTCACCTAGTGCAG,3430 fluorescence intensity (a.u.)
2,GCAAGCGAAATTTCAAAGCCATGTCAGCCAGTGAATAAATCGGAGTCACCTAGTGCAG,5170 fluorescence intensity (a.u.)
3,ATGTCAATTTCCATAGCGTTAGCATGTGACGTCAAATCGCCGGAGTCACCTAGTGCAG,5660 fluorescence intensity (a.u.)
4,CTAGGACTCTGTCCACAGGTTCCACGTTCCTGATATGGTTCGGAGTCACCTAGTGCAG,4860 fluorescence intensity (a.u.)
5,TAGTGTGACATCGATAGCAATGCGAGGCCACGTACCAACCCGGAGTCACCTAGTGCAG,4210 fluorescence intensity (a.u.)
6,GTGGTCCGGTGGTGGGGTGATGGGGCGTGGCGGTTCTGTCCGGAGTCACCTAGTGCAG,5300 fluorescence intensity (a.u.)
7,TAGAGTGATATATTACATATCAATTTATCTTGTTAATTTTCGGAGTCACCTAGTGCAG,3340 fluorescence intensity (a.u.)
8,ATGATAAATGGATTACTTACATGACGTTTGCCTATCGATCCGGAGTCACCTAGTGCAG,5440 fluorescence intensity (a.u.)
9,GCATGACGGATGGACGCGCCGCCTCGTTGGAATCCGGTCTCGGAGTCACCTAGTGCAG,3370 fluorescence intensity (a.u.)
10,CTGAAGTCTCTGAATCTGACACTCACGCTGACCAGATTAACGGAGTCACCTAGTGCAG,3740 fluorescence intensity (a.u.)
11,AATCCTCCGTATATTTCACCAAGCCCTAACACGGACAAAACGGAGTCACCTAGTGCAG,3300 fluorescence intensity (a.u.)
12,CGTATACCTCGGAGAAGTTCTCATCCGCTGACGTGTCCCGCGGAGTCACCTAGTGCAG,23000 fluorescence intensity (a.u.)
13,GGCCCACATATCAGTGACTCAACTACACAGCAGTTAAGTCCGGAGTCACCTAGTGCAG,4050 fluorescence intensity (a.u.)
14,CATGTGTACATTGATACTACTGCCATGACGTCGTGTGCAACGGAGTCACCTAGTGCAG,3480 fluorescence intensity (a.u.)
15,TTTTAACGGAGGGAAGAGAGTACGTGTGACGTGGGTGCACCGGAGTCACCTAGTGCAG,10200 fluorescence intensity (a.u.)
16,ATGTGTGTGTGTGTGTGTGTCGCTGTACTGCCTTCCGTCTCGGAGTCACCTAGTGCAG,3890 fluorescence intensity (a.u.)
17,TTTCTATGCAGATCACAAGATTATGACTATGCTAGCGCTACGGAGTCACCTAGTGCAG,3200 fluorescence intensity (a.u.)
18,CAACCACATCACAGCACTGATCCCTGCGTGTGAAGCGAAGCGGAGTCACCTAGTGCAG,3270 fluorescence intensity (a.u.)
19,ACCTCTAGTATATAGCTGACACGATGACTACTCTGCTTCTCGGAGTCACCTAGTGCAG,8080 fluorescence intensity (a.u.)
20,CCTTTGCTACTTACATCACTGGGTTGAAACTTGATTCCCACGGAGTCACCTAGTGCAG,3180 fluorescence intensity (a.u.)
21,AGTTTATCAAAGCTGCACATCTATCTGATGATGACACTTCCGGAGTCACCTAGTGCAG,4160 fluorescence intensity (a.u.)

row,Sequence,binding signal
1,TTTAGCATTGCCACATAATCAATCAGACGCACTTGAAAGTCGGAGTCACCTAGTGCAG,3740 fluorescence intensity (a.u.)
2,GTGAGGGTTTGGGCCCGTCACAGGTGACCTTGACCAGTGTCGGAGTCACCTAGTGCAG,3190 fluorescence intensity (a.u.)
3,GGCAGAAGTATAATTTCACAAATCAAAGGACAGAGTGACTCGGAGTCACCTAGTGCAG,3820 fluorescence intensity (a.u.)
4,TTTCAATTATTTAGGTATTAACATTAACTACTTTACTAACCGGAGTCACCTAGTGCAG,14800 fluorescence intensity (a.u.)
5,AAGTCATACGTGGTTCCTATATGAGTCGTGTCGTGTGTACCGGAGTCACCTAGTGCAG,7450 fluorescence intensity (a.u.)
6,TGCGGACTACGTCAAGCTGACGTCATCTCCGACCCGACCTCGGAGTCACCTAGTGCAG,54000 fluorescence intensity (a.u.)
7,CGCCGTCGACACGTGGGGCCCCTCCTCCCGCCGCCGCCGCCGGAGTCACCTAGTGCAG,9020 fluorescence intensity (a.u.)
8,CAATCCGCCGCCGCCACGCGTCACCGAAAGCCGTCGCCGACGGAGTCACCTAGTGCAG,7810 fluorescence intensity (a.u.)
9,GGTGGGCGGAGTGGGAGGGGAGGCATCGGCGCCTCGGTGGCGGAGTCACCTAGTGCAG,3620 fluorescence intensity (a.u.)
10,CGCCTCCATGGTTTTGCGACTTTGCCGTCATTGCTTGATACGGAGTCACCTAGTGCAG,3680 fluorescence intensity (a.u.)
11,GAGCCGCTCAGCAGCAACCCCTCCTTCATCGGACTCCACGCGGAGTCACCTAGTGCAG,38200 fluorescence intensity (a.u.)
12,GATGTCATATATCTGGTTTTGTGGTTGGGGTCAATGACAACGGAGTCACCTAGTGCAG,33500 fluorescence intensity (a.u.)
13,TTTTAGTATATTTATATACTTTGTGCAAGGTGACATGTACCGGAGTCACCTAGTGCAG,3440 fluorescence intensity (a.u.)
14,CCAAGATCCTGATAAAGTTCAGTCATCACCATCTCTATAGCGGAGTCACCTAGTGCAG,4340 fluorescence intensity (a.u.)
15,AGGTTGGCATTGCAACGTCATCGATGATGAAATCAAACGCCGGAGTCACCTAGTGCAG,9370 fluorescence intensity (a.u.)
16,CTGGTAGGATTGCTGCTTGCTTTGCCTTCACGTCATTATCCGGAGTCACCTAGTGCAG,3350 fluorescence intensity (a.u.)
17,GGCTATCGGTGGGTGGGTGGGGTGTACTACTCCCCTATAACGGAGTCACCTAGTGCAG,5100 fluorescence intensity (a.u.)
18,CGCTGGGTCACCAACCTTCGCTGCCACATCGTCTCTCCTCCGGAGTCACCTAGTGCAG,5900 fluorescence intensity (a.u.)
19,CAGGGGAGGGGATCCTGGTGAGCATCCACATCACATCCTCCGGAGTCACCTAGTGCAG,5610 fluorescence intensity (a.u.)
20,AGAGAGGGAAGGGAGGGAGGGAGGGAGGAGGGAGAGATCTCGGAGTCACCTAGTGCAG,6770 fluorescence intensity (a.u.)
21,ATTGAAAATTTTGTTTGAGTGCACATCGTGTGCATTTTATCGGAGTCACCTAGTGCAG,8920 fluorescence intensity (a.u.)

# Part of the list above in another layout.
row	Sequence	binding signal
6	TGCGGACTACGTCAAGCTGACGTCATCTCCGACCCGACCTCGGAGTCACCTAGTGCAG	54000 fluorescence intensity (a.u.)
12	GATGTCATATATCTGGTTTTGTGGTTGGGGTCAATGACAACGGAGTCACCTAGTGCAG	33500 fluorescence intensity (a.u.)
